Earlier results, collected in patent US20100076074A1, “CARBAMATE REDUCERS OF SKELETAL MUSCLE TENSION” (AUSPEX PHARMACEUTICALS, INC., priority 2008, published 2010).
Some of these results come from one statement about several compounds together.

Settings: short but highly variable; usually

Compound | half-lives
CCCC(C)(COC(N)=O)COC(=O)NC(C)C (centres unmarked) [cariosoprodol, carbamic acid 2-isopropylcarbamoyloxymethyl-2-methyl-pentyl ester] | less than 8 hours
CCCC(C)(COC(N)=O)COC(N)=O [meprobamate] | less than 8 hours
